Test results from article PMC4633129.

Target: T1, FLAG-tagged PHB1 (prohibitin 1) (UniProt P35232)
T1 sequence: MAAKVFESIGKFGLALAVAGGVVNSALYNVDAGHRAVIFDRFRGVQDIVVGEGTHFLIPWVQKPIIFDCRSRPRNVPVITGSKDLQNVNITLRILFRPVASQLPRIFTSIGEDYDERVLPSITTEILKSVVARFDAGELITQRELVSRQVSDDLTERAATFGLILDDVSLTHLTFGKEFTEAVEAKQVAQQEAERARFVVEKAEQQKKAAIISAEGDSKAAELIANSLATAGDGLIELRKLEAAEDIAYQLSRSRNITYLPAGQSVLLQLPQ
Experiment: co-IP; anti-FLAG M2 antibody with protein G Plus/A-agarose from lysates of H9c2 cells transfected with FLAG-PHB1 and FLAG-PHB2; cells incubated 0, 15 or 30 min with FL3 (100 nM) before lysis; IP buffer 20 mM Tris-HCl, 5 M NaCl (so in the source), 2 mM EDTA, 1% Triton X-100; western blot with anti-STAT3 or anti-phospho-STAT3

Row | binding | Substance
1 | no binding | AKT (rat (endogenous in H9c2))
2 | no binding | ERK (rat (endogenous in H9c2))

These are yes or no findings as the source states them, for the method shown. Binding seen in cells or lysates may run through a third protein. Where a sequence is shown, tags or fusion partners need not be part of it.
